Results on one compound are retold here after PubChem BioAssay AID248 (DTP/NCI, 2004).

Molecules are shown by their SMILES. The list shows only some results of the screen, not a fair sample: it is rich in T/C values a quarter to a half above the control, in often repeated tests (any T/C) and in doses without a T/C. Further doses and runs are listed elsewhere. T/C gives the treated animals as a percentage of the vehicle group. Some doses have a count of surviving animals in place of a T/C: the source holds a T/C of zero for them, seemingly a mark for toxic or unscored doses. Some survivor counts are full or nearly so, which does not show that the dose was tolerated: survival well below the control is almost never listed, so the zero probably covers shortened survival too. Counts of survivors are from the toxicity check (mostly the fifth day) where no day follows; animals may have died later. Schedules are NCI's codes, taken here to give the interval after Q, in days (D) or hours (H), and the number of doses after X. Some structures stand for samples that the source files as different forms (salt, stereo form or complex); doses refer to the form tested.

The assay has as its system L1210 leukemia ip in BDF1 mice, survival T/C. Nature of the assay: NCI In Vivo Anticancer Drug Screen. Data for tumor model L1210 Leukemia (intraperitoneal) in B6D2F1 (BDF1) mice. As to conditions: T/C endpoint: mean survival time, higher T/C = longer survival.

Regarding `c1ccc([Se+](c2ccccc2)c2ccccc2)cc1`, the survivor count is, setting by setting: (dose: 0.9 mg/kg/injection, schedule: Q01DX009 (ip), vehicle: Klucel (hydroxypropylcellulose) (HPC)) 0 of 6; (dose: 1.56 mg/kg/injection, schedule: Q01DX009 (ip), vehicle: saline) 5 of 6; (dose: 3.12 mg/kg/injection, schedule: Q01DX009 (ip), vehicle: saline) 0 of 6; (dose: 6.25 mg/kg/injection, schedule: Q01DX009 (ip), vehicle: saline) 0 of 6; (dose: 12.5 mg/kg/injection, schedule: Q01DX009 (ip), vehicle: saline) 0 of 6; (dose: 25.0 mg/kg/injection, schedule: Q01DX009 (ip), vehicle: saline) 0 of 6. Besides, the survivor count reads like this: (dose: 25.0 mg/kg/injection, schedule: Q04DX002 (ip), vehicle: saline) 0 of 3; (dose: 50.0 mg/kg/injection, schedule: Q04DX002 (ip), vehicle: saline) 0 of 3; (dose: 100.0 mg/kg/injection, schedule: Q04DX002 (ip), vehicle: saline) 0 of 3; (dose: 200.0 mg/kg/injection, schedule: Q04DX002 (ip), vehicle: saline) 0 of 3; (dose: 400.0 mg/kg/injection, schedule: Q04DX002 (ip), vehicle: saline) 0 of 3.
